Experimental data from article doi:10.1101/2019.12.23.887547.
Results are given in words; binding and its absence hold for the method and conditions named. For part of these data: Binding seen in cells or lysates may run through a third protein. Some entries that bind do so weakly or less than the wild type. For part of these data: Tags and fused reporters may be left off the sequences shown.

By UniProt entry, the sequences of proteins in these tests, tags left out. Where a name states a change or a piece, a line headed by the entry shows the natural chain unless it says otherwise. Residues count along the entry.
UniProt P83916: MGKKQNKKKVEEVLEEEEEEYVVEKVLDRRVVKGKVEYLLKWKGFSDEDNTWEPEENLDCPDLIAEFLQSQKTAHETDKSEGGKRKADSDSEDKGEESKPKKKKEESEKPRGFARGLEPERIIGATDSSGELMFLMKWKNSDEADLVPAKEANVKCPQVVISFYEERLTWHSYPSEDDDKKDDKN
UniProt Q13185: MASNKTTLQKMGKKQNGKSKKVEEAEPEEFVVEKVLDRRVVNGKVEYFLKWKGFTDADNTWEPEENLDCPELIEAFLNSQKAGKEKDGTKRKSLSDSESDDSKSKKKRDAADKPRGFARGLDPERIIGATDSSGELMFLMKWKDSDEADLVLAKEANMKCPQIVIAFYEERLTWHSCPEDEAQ
UniProt P45973: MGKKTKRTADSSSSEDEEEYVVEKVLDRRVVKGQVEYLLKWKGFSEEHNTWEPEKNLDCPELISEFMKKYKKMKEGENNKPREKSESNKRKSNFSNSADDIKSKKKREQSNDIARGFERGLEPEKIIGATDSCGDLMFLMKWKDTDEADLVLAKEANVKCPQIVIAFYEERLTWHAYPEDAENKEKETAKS
UniProt O95931: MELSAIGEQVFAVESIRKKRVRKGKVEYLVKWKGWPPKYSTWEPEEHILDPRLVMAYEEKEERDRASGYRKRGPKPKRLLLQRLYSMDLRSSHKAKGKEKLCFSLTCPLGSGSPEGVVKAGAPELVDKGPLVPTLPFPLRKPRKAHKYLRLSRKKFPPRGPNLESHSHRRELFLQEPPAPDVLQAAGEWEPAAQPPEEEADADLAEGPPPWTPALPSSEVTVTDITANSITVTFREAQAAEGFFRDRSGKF
UniProt O75530, residues 142-200: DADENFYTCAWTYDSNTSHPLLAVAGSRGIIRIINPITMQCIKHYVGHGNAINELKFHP
UniProt Q99496: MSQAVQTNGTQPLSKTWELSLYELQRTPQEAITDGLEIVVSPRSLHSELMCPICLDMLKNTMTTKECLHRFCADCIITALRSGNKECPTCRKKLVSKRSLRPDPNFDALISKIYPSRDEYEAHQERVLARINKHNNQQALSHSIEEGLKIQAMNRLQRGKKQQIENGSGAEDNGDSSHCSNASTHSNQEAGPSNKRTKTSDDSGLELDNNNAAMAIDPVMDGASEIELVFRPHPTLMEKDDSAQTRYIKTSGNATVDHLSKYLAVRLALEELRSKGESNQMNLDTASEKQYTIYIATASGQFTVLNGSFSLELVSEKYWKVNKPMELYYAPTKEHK
GST-RING1B amino acids 1-100: residues 1-100 of Q99496
GST-RING1B amino acids 101-200: residues 101-200 of Q99496
UniProt Q8IZL8: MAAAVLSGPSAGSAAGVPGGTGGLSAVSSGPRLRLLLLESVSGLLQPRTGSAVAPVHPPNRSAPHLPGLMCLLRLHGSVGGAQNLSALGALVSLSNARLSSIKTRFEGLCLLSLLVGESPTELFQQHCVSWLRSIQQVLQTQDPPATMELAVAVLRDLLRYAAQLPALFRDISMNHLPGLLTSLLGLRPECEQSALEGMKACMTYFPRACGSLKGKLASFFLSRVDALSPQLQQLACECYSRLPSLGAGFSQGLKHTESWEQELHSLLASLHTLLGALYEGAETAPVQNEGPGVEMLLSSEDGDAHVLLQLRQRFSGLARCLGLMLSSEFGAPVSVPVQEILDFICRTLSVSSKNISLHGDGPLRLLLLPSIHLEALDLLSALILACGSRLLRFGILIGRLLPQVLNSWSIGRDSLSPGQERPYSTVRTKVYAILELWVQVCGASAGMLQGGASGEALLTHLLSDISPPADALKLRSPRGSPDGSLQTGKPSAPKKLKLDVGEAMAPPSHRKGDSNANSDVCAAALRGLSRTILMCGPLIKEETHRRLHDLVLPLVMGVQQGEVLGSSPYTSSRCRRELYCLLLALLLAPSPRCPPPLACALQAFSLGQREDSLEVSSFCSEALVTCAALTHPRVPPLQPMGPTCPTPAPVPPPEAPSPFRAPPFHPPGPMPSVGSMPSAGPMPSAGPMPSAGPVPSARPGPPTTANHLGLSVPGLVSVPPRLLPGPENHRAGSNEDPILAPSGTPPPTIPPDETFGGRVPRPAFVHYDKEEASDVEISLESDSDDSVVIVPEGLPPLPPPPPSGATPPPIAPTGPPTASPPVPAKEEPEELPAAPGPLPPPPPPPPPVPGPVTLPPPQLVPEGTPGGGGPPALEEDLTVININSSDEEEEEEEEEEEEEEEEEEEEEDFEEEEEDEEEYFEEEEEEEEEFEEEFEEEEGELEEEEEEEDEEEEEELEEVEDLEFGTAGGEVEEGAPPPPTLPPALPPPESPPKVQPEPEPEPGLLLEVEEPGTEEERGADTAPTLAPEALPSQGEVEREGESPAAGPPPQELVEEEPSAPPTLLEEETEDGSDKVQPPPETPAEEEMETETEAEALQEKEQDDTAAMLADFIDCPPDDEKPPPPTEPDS
UniProt Q9H4L4: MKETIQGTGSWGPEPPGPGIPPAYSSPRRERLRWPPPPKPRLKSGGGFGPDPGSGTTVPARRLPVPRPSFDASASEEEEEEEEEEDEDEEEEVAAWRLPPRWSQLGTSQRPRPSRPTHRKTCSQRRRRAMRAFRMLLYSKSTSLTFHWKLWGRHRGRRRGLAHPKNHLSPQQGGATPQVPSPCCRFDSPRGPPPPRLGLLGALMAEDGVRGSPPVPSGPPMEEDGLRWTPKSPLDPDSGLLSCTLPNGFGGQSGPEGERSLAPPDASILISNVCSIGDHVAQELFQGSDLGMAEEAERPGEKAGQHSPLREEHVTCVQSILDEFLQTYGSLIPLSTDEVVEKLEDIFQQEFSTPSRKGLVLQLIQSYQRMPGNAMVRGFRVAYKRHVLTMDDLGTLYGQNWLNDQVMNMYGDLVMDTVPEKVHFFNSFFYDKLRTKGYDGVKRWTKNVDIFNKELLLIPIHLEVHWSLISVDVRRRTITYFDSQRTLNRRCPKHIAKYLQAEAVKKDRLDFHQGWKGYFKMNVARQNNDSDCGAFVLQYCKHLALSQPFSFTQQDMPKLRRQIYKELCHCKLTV

T1: 3xFlag-NOL9 (human (endogenous in HEK293FT)) (UniProt Q5SY16)
T1 sequence: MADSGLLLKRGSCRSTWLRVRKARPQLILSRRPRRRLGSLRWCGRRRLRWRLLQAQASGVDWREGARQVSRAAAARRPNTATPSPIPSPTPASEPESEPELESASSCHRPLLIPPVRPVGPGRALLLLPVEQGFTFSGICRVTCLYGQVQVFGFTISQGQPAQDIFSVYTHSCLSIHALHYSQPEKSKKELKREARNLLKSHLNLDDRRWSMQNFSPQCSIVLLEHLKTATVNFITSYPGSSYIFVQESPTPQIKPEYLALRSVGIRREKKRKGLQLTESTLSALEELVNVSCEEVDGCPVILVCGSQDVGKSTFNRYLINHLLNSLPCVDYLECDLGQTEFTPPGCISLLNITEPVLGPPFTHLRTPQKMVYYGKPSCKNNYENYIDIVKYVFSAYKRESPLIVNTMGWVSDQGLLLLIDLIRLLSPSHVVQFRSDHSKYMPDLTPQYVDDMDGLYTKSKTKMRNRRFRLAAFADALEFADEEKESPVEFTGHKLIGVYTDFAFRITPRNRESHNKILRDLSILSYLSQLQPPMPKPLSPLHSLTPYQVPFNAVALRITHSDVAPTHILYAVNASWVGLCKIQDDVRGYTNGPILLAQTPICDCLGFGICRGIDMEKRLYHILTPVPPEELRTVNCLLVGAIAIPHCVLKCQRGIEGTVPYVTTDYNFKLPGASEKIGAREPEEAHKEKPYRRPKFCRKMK

T2: 3xFlag-WDR18 (human (endogenous in HEK293FT)) (UniProt Q9BV38)
T2 sequence: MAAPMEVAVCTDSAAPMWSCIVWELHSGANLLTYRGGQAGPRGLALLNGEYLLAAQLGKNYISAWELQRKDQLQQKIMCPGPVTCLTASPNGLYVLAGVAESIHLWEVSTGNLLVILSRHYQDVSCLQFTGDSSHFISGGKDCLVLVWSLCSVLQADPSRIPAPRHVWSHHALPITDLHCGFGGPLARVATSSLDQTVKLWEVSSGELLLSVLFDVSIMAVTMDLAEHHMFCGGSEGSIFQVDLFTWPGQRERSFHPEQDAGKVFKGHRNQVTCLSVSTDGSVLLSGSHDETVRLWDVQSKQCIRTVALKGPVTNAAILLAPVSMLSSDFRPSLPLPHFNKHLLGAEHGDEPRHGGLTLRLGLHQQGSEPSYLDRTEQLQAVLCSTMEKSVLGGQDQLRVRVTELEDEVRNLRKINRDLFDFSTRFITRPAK

T3: PCGF3 (yeast two-hybrid fusion) (human) (UniProt Q3KNV8)
T3 sequence: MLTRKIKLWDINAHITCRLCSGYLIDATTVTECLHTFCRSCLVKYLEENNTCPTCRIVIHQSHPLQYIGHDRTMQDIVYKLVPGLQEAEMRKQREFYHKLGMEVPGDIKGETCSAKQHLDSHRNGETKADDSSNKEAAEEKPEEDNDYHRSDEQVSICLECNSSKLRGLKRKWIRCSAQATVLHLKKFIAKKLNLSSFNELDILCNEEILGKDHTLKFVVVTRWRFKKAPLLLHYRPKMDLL

T4: CBX8 (yeast two-hybrid fusion) (human) (UniProt Q9HC52)
T4 sequence: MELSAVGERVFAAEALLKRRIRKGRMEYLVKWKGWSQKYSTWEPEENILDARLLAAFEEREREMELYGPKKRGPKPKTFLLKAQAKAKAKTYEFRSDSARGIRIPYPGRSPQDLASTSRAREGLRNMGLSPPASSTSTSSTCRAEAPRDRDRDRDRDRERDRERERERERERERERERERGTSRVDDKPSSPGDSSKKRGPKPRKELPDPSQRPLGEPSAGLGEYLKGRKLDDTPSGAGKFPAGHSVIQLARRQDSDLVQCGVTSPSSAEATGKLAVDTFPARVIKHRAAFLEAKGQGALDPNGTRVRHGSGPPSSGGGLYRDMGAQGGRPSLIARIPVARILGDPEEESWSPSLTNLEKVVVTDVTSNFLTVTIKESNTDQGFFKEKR


What was measured:
[1] = target: T1, 3xFlag-NOL9 (human (endogenous in HEK293FT)); assay: co-IP
[2] = target: T2, 3xFlag-WDR18 (human (endogenous in HEK293FT)); assay: co-IP
[3] = target: CBX1 (yeast two-hybrid fusion) (human) (UniProt P83916); assay: two-hybrid
[4] = target: CBX3 (yeast two-hybrid fusion) (human) (UniProt Q13185); assay: two-hybrid
[5] = target: CBX5 (yeast two-hybrid fusion) (human) (UniProt P45973); assay: two-hybrid
[6] = target: T3, PCGF3 (yeast two-hybrid fusion) (human); assay: two-hybrid
[7] = target: CBX7 (yeast two-hybrid fusion) (human) (UniProt O95931); assay: two-hybrid
[8] = target: T4, CBX8 (yeast two-hybrid fusion) (human); assay: two-hybrid
[9] = target: GST-EED amino acids 142-200 (human) (UniProt O75530); assay: pull-down
[10] = target: GST-RING1B amino acids 1-100 (human) (UniProt Q99496); assay: pull-down
[11] = target: GST-RING1B amino acids 101-200 (human) (UniProt Q99496); assay: pull-down

Molecule | binding [3] | binding [4] | binding [5] | binding [6] | further results
RING1B (from UniProt Q99496 1-336) |  |  |  |  | binding [1]: binds; binding [2]: binds
PELP1 (yeast two-hybrid fusion) (from UniProt Q8IZL8 1-1130) | no binding | no binding | no binding | binds | 
SENP3 (yeast two-hybrid fusion) (from UniProt Q9H4L4 1-574) | no binding | no binding | no binding | binds | binding [7]: binds; binding [8]: binds
TEX10 (bacterially expressed and purified) (protein, UniProt Q9NXF1 1-929) MTKKRKRQHDFQKVKLKVGKKKPKLQNATPTNFKTKTIHLPEQLKEDGTLPTNNRKLNIKDLLSQMHHYNAGVKQSALLGLKDLLSQYPFIIDAHLSNILSEVTAVFTDKDANVRLAAVQLLQFLAPKIRAEQISPFFPLVSAHLSSAMTHITEGIQEDSLKVLDILLEQYPALITGRSSILLKNFVELISHQQLSKGLINRDRSQSWILSVNPNRRLTSQQWRLKVLVRLSKFLQALADGSSRLRESEGLQEQKENPHATSNSIFINWKEHANDQQHIQVYENGGSQPNVSSQFRLRYLVGGLSGVDEGLSSTENLKGFIEIIIPLLIECWVEAVPPQLATPVGNGIEREPLQVMQQVLNIISLLWKLSKQQDETHKLESWLRKNYLIDFKHHFMSRFPYVLKEITKHKRKEPNKSIKHCTVLSNNIDHLLLNLTLSDIMVSLANASTLQKDCSWIEMIRKFVTETLEDGSRLNSKQLNRLLGVSWRLMQIQPNREDTETLIKAVYTLYQQRGLILPVRTLLLKFFSKIYQTEELRSCRFRYRSKVLSRWLAGLPLQLAHLGSRNPELSTQLIDIIHTAAARANKELLKSLQATALRIYDPQEGAVVVLPADSQQRLVQLVYFLPSLPADLLSRLSRCCIMGRLSSSLAAMLIGILHMRSSFSGWKYSAKDWLMSDVDYFSFLFSTLTGFSKEELTWLQSLRGVPHVIQTQLSPVLLYLTDLDQFLHHWDVTEAVFHSLLVIPARSQNFDILQSAISKHLVGLTVIPDSTAGCVFGVICKLLDHTCVVSETLLPFLASCCYSLLYFLLTIEKGEAEHLRKRDKLWGVCVSILALLPRVLRLMLQSLRVNRVGPEELPVVGQLLRLLLQHAPLRTHMLTNAILVQQIIKNITTLKSGSVQEQWLTDLHYCFNVYITGHPQGPSALATVY |  |  |  |  | binding [9]: binds; binding [10]: binds; binding [11]: binds
NOL9 (yeast two-hybrid fusion) (protein, UniProt Q5SY16 1-702) MADSGLLLKRGSCRSTWLRVRKARPQLILSRRPRRRLGSLRWCGRRRLRWRLLQAQASGVDWREGARQVSRAAAARRPNTATPSPIPSPTPASEPESEPELESASSCHRPLLIPPVRPVGPGRALLLLPVEQGFTFSGICRVTCLYGQVQVFGFTISQGQPAQDIFSVYTHSCLSIHALHYSQPEKSKKELKREARNLLKSHLNLDDRRWSMQNFSPQCSIVLLEHLKTATVNFITSYPGSSYIFVQESPTPQIKPEYLALRSVGIRREKKRKGLQLTESTLSALEELVNVSCEEVDGCPVILVCGSQDVGKSTFNRYLINHLLNSLPCVDYLECDLGQTEFTPPGCISLLNITEPVLGPPFTHLRTPQKMVYYGKPSCKNNYENYIDIVKYVFSAYKRESPLIVNTMGWVSDQGLLLLIDLIRLLSPSHVVQFRSDHSKYMPDLTPQYVDDMDGLYTKSKTKMRNRRFRLAAFADALEFADEEKESPVEFTGHKLIGVYTDFAFRITPRNRESHNKILRDLSILSYLSQLQPPMPKPLSPLHSLTPYQVPFNAVALRITHSDVAPTHILYAVNASWVGLCKIQDDVRGYTNGPILLAQTPICDCLGFGICRGIDMEKRLYHILTPVPPEELRTVNCLLVGAIAIPHCVLKCQRGIEGTVPYVTTDYNFKLPGASEKIGAREPEEAHKEKPYRRPKFCRKMK | no binding | no binding | no binding |  | 
WDR18 (yeast two-hybrid fusion) (protein, UniProt Q9BV38 1-432) MAAPMEVAVCTDSAAPMWSCIVWELHSGANLLTYRGGQAGPRGLALLNGEYLLAAQLGKNYISAWELQRKDQLQQKIMCPGPVTCLTASPNGLYVLAGVAESIHLWEVSTGNLLVILSRHYQDVSCLQFTGDSSHFISGGKDCLVLVWSLCSVLQADPSRIPAPRHVWSHHALPITDLHCGFGGPLARVATSSLDQTVKLWEVSSGELLLSVLFDVSIMAVTMDLAEHHMFCGGSEGSIFQVDLFTWPGQRERSFHPEQDAGKVFKGHRNQVTCLSVSTDGSVLLSGSHDETVRLWDVQSKQCIRTVALKGPVTNAAILLAPVSMLSSDFRPSLPLPHFNKHLLGAEHGDEPRHGGLTLRLGLHQQGSEPSYLDRTEQLQAVLCSTMEKSVLGGQDQLRVRVTELEDEVRNLRKINRDLFDFSTRFITRPAK | no binding | no binding | no binding |  | 
